From article doi:10.1101/2021.08.26.457804
No constants are given. Whether binding was seen depends on the method and setting. In cells and extracts the contact can be indirect. Some results given as binding are weak or reduced against the parent protein; the word gives no strength. Sequences can lack the tags named with a protein.

Molecular target: T1, Myc-CASP4^C258A (human) (UniProt P49662)
T1 sequence: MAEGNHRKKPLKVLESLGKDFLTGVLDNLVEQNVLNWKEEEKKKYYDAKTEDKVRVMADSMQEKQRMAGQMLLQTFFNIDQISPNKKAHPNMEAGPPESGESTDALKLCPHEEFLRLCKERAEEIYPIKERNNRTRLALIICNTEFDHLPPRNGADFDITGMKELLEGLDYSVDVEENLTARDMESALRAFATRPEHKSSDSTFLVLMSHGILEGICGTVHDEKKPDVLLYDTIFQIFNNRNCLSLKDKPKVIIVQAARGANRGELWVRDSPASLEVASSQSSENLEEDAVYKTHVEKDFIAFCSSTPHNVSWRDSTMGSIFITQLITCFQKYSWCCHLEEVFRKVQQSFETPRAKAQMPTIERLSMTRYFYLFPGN
Experiment: co-IP

binding: binds
B1: Flag-GSDMD^L192D (protein, UniProt P57764 1-484)
chain: MGSAFERVVRRVVQELDHGGEFIPVTSLQSSTGFQPYCLVVRKPSSSWFWKPRYKCVNLSIKDILEPDAAEPDVQRGRSFHFYDAMDGQIQGSVELAAPGQAKIAGGAAVSDSSSTSMNVYSLSVDPNTWQTLLHERHLRQPEHKVLQQLRSRGDNVYVVTEVLQTQKEVEVTRTHKREGSGRFSLPGATCDQGEGQGHLSQKKTVTIPSGSTLAFRVAQLVIDSDLDVLLFPDKKQRTFQPPATGHKRSTSEGAWPQLPSGLSMMRCLHNFLTDGVPAEGAFTEDFQGLRAEVETISKELELLDRELCQLLLEGLEGVLRDQLALRALEEALEQGQSLGPVEPLDGPAGAVLECLVLSSGMLVPELAIPVVYLLGALTMLSETQHKLLAEALESQTLLGPLELVGSLLEQSAPWQERSTMSLPPGLLGNSWGEGAPAWVLLDECGLELGEDTPHVCWEPQAQGRMCALYASLALLSGLSQEPH
